Data on 3 molecules can be found in publication PMC8850192.

Residue numbers refer to the chain shown, from its start. These are yes or no findings as the source states them, for the method shown. Binding seen in cells or lysates may run through a third protein. Here binding means that the protein was enriched with, or labelled near, the bait; the list need not be complete. For some assays here: Where a sequence is shown, tags or fusion partners need not be part of it.

Test [1] concerns the target T1, MET-2 (wild type, in LIN-65::GFP embryos) (C. elegans) (UniProt P34544).
T1 sequence: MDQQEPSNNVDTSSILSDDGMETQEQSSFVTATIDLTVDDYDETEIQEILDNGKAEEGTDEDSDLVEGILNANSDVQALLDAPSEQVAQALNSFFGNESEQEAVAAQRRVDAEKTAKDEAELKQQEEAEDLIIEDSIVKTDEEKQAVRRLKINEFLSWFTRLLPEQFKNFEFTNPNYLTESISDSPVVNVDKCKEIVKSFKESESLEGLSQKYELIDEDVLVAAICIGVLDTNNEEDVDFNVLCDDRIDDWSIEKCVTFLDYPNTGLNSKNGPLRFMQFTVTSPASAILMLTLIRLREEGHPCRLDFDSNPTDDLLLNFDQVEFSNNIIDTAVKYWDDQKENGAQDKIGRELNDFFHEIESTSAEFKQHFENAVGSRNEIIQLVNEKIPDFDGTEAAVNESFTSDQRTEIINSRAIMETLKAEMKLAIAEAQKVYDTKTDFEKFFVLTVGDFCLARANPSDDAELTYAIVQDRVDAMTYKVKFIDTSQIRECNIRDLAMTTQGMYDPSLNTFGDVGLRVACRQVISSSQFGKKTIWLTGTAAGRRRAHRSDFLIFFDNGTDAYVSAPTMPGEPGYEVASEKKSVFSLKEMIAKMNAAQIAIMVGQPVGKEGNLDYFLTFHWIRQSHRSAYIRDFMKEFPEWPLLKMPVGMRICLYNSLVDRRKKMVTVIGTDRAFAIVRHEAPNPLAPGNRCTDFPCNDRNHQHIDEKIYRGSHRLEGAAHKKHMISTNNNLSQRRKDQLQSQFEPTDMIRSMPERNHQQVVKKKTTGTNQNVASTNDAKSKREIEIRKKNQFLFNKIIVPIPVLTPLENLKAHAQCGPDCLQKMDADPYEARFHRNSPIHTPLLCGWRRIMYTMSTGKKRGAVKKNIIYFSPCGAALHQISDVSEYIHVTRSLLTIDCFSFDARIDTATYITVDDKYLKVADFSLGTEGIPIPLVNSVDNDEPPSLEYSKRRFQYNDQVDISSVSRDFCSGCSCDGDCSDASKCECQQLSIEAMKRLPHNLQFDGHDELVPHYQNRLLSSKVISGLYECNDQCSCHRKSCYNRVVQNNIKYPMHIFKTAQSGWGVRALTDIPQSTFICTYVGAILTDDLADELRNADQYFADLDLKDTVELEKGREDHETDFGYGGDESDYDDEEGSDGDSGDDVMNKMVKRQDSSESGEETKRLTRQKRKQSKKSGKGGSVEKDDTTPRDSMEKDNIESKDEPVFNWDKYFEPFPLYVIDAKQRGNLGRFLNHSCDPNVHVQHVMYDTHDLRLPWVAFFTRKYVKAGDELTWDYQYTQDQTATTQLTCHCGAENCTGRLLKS
As to the kind of experiment: affinity purification with mass spectrometry; LIN-65::GFP as bait, immunoprecipitation-MS/MS, iBAQ values; WT or met-2-CD embryos.

The target in test [2] is T2, MET-2-CD (C1237A, catalytically deficient MET-2) (C. elegans) (UniProt P34544).
T2 sequence: T1 sequence with C1237A
The description is as above.

The target in test [3] is T3, MET-2::FLAG::mCherry (C. elegans) (UniProt P34544).
T3 sequence: T1 sequence
As to the kind of experiment: affinity purification with mass spectrometry; MET-2::FLAG::mCherry as bait on anti-FLAG-M2 beads; homogenized, sonicated and cleared embryo lysates in TAP buffer (150 mM NaCl, 20 mM Tris-HCl pH 7.5, 0.5% NP-40, 1 mM EDTA, 10% glycerol, 1 mM DTT) at 4 °C; LC-MS/MS, iBAQ values; WT, lin-65Δ(gw1465) and arle-14Δ(tm6845) embryos (ablation of one cofactor did not affect binding of the other to MET-2).

The target in another test is LIN-65::GFP (C. elegans). As to the kind of experiment: affinity purification with mass spectrometry; LIN-65::GFP as bait, immunoprecipitation-MS/MS, iBAQ values; WT or met-2-CD embryos.

As to “ARLE-14 (C. elegans (endogenous in embryos))”, the binding entry in test [1], in test [2] and in test [3] was “binds” throughout.
Consider “LIN-65 (C. elegans (endogenous in embryos))”, for which the binding entry in test [3] was “binds”.

B1: MET-2 (wild type, in LIN-65::GFP embryos) (enzyme, UniProt P34544 1-1304)
chain: T1 sequence
As to B1, the binding result with LIN-65::GFP (C. elegans) was “binds”.
